The values that follow come from PubChem BioAssay AID2685 (National Center for Advancing Translational Sciences (NCATS), 2010).

Molecules are shown by their SMILES. The list shows a part of the results. Further columns of the screen follow, without active or inactive calls. The list favours compounds with an active or inconclusive main result. Potencies come from curve fits of mixed quality, noted in brackets.

The nature of this experiment: qHTS Assay for Lipid Storage Modulators in Drosophila S3 Cells.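 As to cell number change: cells counted by Cell Tracker Red CMTPX staining in the red channel.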 Particulars: BODIPY lipid droplet fluorescence, 18-24 h; for cell number change: measured here: cell count max response, cells fed with added oleic acid. An outline of the steps:
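Laser-scanning cytometry quantifies lipid droplet accumulation (500–530 nm total intensity; droplet/cell object ratio) in oleic acid-fed (400 uM added) Drosophila S3 cells treated with a concentration series. 20 uM Triacsin C defined 100% inhibition.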
(In qHTS, concentration-response curves come from the screen itself.)

Where [1] appears, read: measured here: cell number channel AC50, cells fed with added oleic acid.
[2] abbreviates: measured here: lipid fluorescence (Fed channel) AC50, cells fed with added oleic acid.

On to `COc1ccc(/C=N/Nc2nc(C)cc(-c3ccccc3)n2)cc1OC`, for which the cell number change was -30.4%. Also, the AC50 (in general, the concentration giving half of the maximal activity seen) under setting [1] is 14.6 µM [falling, single point]. Further, under setting [2], the concentration at half-maximal activity (AC50) is 16.4 µM [falling, partial curve].

Consider `CC(=O)c1ccc(NC(=O)CSc2nc(=O)cc(N)n2-c2ccccc2)cc1`, for which the cell number change was -39%.

Take `COc1cccc2sc(N(CCCN(C)C)C(=O)CCS(=O)(=O)c3ccccc3)nc12`: the cell number change was -16.7%.

Take `Cc1ccc(OC(=O)c2ccccc2C(=O)OCC(F)(F)C(F)F)cc1`: the cell number change was -26.3%. The AC50 under setting [1] was 0.291 µM [falling, full curve, poor fit]. Under setting [2], the AC50 was 0.92 µM [falling, full curve].

Take `CCOC(=O)c1sc(N/N=C/c2ccc(N(C)C)cc2)nc1C`: the cell number change is -11.9%. For the same molecule, under setting [2], the AC50 is 18.4 µM [falling, partial curve].

For `Cc1cccc2nc(COc3ccc(Cl)c4cccnc34)cn12`, the AC50 was 0.092 µM [rising, single point] under setting [1] and 0.0731 µM [rising, partial curve, poor fit] under setting [2].

Turning to `O=C(Nc1ccccc1C(=O)O)c1cc(S(=O)(=O)N2CCCCC2)c(Cl)cc1Cl`, the cell number change was 11.9%. Under setting [2], the AC50 is 29.1 µM [rising, single point].

Regarding `Cc1ccc(C)c(NC(=O)CNC(=O)N2CC(=O)Nc3ccccc32)c1`, the cell number change was -6.42%. The AC50 under setting [2] was 29.1 µM [rising, single point].

Take `CCn1c(SCC(=O)N(C)C)nc2cc(S(=O)(=O)N3CCCCC3)ccc21`: the cell number change is -15.5%. Moreover, the AC50 under setting [2] was 0.00517 µM [falling, full curve, poor fit].

Turning to `CCn1c(SCC(=O)Nc2ccccc2OC)nc2ccccc2c1=O`, the cell number change was 12%. Besides, the AC50 under setting [2] is 0.164 µM [rising, full curve, poor fit].

With `COc1ccc(CCNC(=O)CCCn2nc(C)c([N+](=O)[O-])c2C)cc1OC`, the cell number change was determined as 13.8%. Besides, the AC50 under setting [2] is 0.411 µM [rising, partial curve, poor fit].

For the molecule `CCn1cc(Br)c(C(=O)Nc2ccc(F)cc2F)n1`, the cell number change came out at 27.4%. Also, the AC50 under setting [1] is 1.16 µM [rising, full curve, poor fit]. In addition, under setting [2], the AC50 is 0.651 µM [rising, single point].

`CCC(=O)N1CCN(c2ccc(NC(=O)COc3ccccc3[N+](=O)[O-])cc2)CC1`: the cell number change was -6.49%. Further, the AC50 under setting [2] was 6.51 µM [rising, single point].

On to `COc1ccc(Cl)cc1NC(=O)[C@@H]1CCCN1C(=O)c1cccs1`, for which the cell number change was determined as 11.2%. Also, the half-maximal activity concentration (AC50) under setting [2] is 0.0058 µM [rising, full curve, poor fit].

As to `CC(C)(C)C(=O)OCc1cn(-c2ccccc2)nn1`, the cell number change is -18.6%. Moreover, the AC50 under setting [1] was 0.103 µM [falling, full curve, poor fit].

On to `O=C(NNC(=O)c1cccc([N+](=O)[O-])c1)c1ccncc1`, for which the cell number change was found to be 31.6%. The AC50 under setting [1] was 0.00411 µM [rising, full curve, poor fit].

For `O=C(CCN1CCC(c2ccccc2)C1)c1ccc2c(c1)OCCO2` (configuration not stated), the cell number change was -47.9%. Further, the AC50 under setting [1] is 18.4 µM [falling, single point]. For the same molecule, under setting [2], the AC50 is 29.1 µM [falling, single point].

As to `COc1ccc(NC(=O)CSc2nc3nc(C)cc(C)n3n2)cc1`, the cell number change worked out at 10.3%. Also, the AC50 under setting [2] was 5.17 µM [falling, single point].

As to `CSc1cccc(NC(=O)C(C)C)c1`, the cell number change was found to be 117%. Further, under setting [1], the half-maximal activity concentration (AC50) was 14.6 µM [rising, partial curve]. Besides, the AC50 under setting [2] is 23.1 µM [rising, partial curve].

For the molecule `COc1ccc(CN2CN(C(C)C)CSC2=S)cc1`, the cell number change was -17.4%. Moreover, the AC50 under setting [2] is 25.9 µM [falling, partial curve, poor fit].

Regarding `Cc1ccc(S(=O)(=O)c2ccc(Cl)cc2)cc1S(=O)(=O)N1CCOCC1`, the cell number change amounted to 67.8%. For the same molecule, the AC50 under setting [1] was 6.51 µM [rising, partial curve].

For `Cc1cc(C)c(NC(=O)c2ccc(S(=O)(=O)N(C)C)cc2)c(C)n1`, the cell number change was found to be 0.625%. Moreover, the AC50 under setting [2] was 0.82 µM [falling, full curve].

Consider `O=C1COCC(=O)N1CCc1c[nH]c2ccccc12`, for which the cell number change turned out to be 18.6%. Also, the AC50 under setting [1] was 0.259 µM [falling, single point]. Moreover, the half-maximal activity concentration (AC50) under setting [2] was 0.326 µM [falling, single point].

For the molecule `CC1CCCN(C(=O)CCNS(=O)(=O)c2ccc3c(c2)c(=O)n(C)c(=O)n3C)C1` (configuration not stated), the cell number change is -50.5%. Also, under setting [1], the AC50 is 2.59 µM [falling, partial curve]. The AC50 under setting [2] was 4.11 µM [falling, single point].

`O=C(NCCCN1CCCC1=O)c1cc2ccccc2o1`: the cell number change was -15.3%. Also, the AC50 under setting [2] was 2.31 µM [rising, partial curve].

Take `Cc1ccc(-c2nc3ccccc3c(=O)n2CCN2CCOCC2)cc1`: under setting [2], the concentration at half-maximal activity (AC50) was 6.51 µM [rising, single point].

`COCCn1ccc(O)c(Cc2ccc(Cl)cc2)c1=O`: the cell number change worked out at 15.5%. Also, the AC50 under setting [1] is 3.26 µM [falling, single point]. Besides, under setting [2], the AC50 is 3.26 µM [falling, single point].

Take `CCC1CCc2c(sc3nc(SCC(=O)NCc4ccco4)n(-c4ccccc4)c(=O)c23)C1` (configuration not stated): the cell number change was -30.9%. The AC50 under setting [1] was 3.66 µM [falling, full curve]. The AC50 under setting [2] is 11.6 µM [falling, partial curve].

`COc1cccc([C@@H]2CC=C(C(=O)O)[C@H](c3cccc(Cl)c3)N2S(=O)(=O)c2ccc(C)cc2)c1`: the cell number change was -25.7%. Also, under setting [2], the concentration at half-maximal activity (AC50) is 14.6 µM [falling, partial curve, poor fit].

On to `Cn1nc(N)c2c(-c3ccc(Cl)cc3)c(C#N)c(N)nc21`, for which the cell number change was determined as 11.5%. Moreover, the AC50 under setting [2] was 1.84 µM [rising, partial curve, poor fit].

For `O=C(NC1CCN(C(=S)Nc2ccc(F)cc2)CC1)c1ccco1`, the cell number change was -2.14%. Under setting [2], the AC50 is 4.11 µM [rising, full curve].

`Cc1cccc(-c2n[nH]c(=S)n2C)c1`: the cell number change is -6.32%. Under setting [2], the AC50 is 0.651 µM [rising, single point].

`CCOC(=O)c1cc2c(ccn2C)n1CC(=O)N1CCN(c2ccccc2)CC1`: the cell number change is -17.7%. Also, the AC50 under setting [2] is 8.2 µM [falling, partial curve].

As for `Cc1nn(Cc2ccc(C(=O)Nc3nc4c(C)cccc4s3)o2)c(C)c1Br`, the cell number change was -24.4%. Also, the AC50 under setting [2] is 0.146 µM [falling, full curve].

`CCN1CCc2c(sc(NC(=S)NC(=O)c3ccccc3)c2C#N)C1`: the cell number change came out at 4.02%. Also, the AC50 under setting [2] was 5.8 µM [rising, full curve, poor fit].

For the molecule `CC(Oc1ccc(Br)cc1)C(=O)NCC(C)(C)N1CCOCC1` (configuration not stated), the AC50 was 6.51 µM [rising, single point] under setting [1] and 6.51 µM [rising, single point] under setting [2].

Regarding `CCOc1c(Cl)cc(C(=O)Nc2ccccc2-c2ccccc2)cc1Cl`, the cell number change worked out at 12.6%. Moreover, under setting [1], the AC50 was 0.00461 µM [falling, full curve, poor fit].

Consider `CN(Cc1ccccc1NC(=O)c1ccc(S(=O)(=O)N(C)C)cc1)C1CCCCC1`, for which the cell number change came out at 7.75%. For the same molecule, under setting [1], the AC50 was 0.326 µM [falling, partial curve, poor fit].

As for `O=C(NCc1ccc(F)cc1)c1cccnc1`, the cell number change was 1.76%.

Regarding `CN(C)S(=O)(=O)c1cc(NC(=O)COC(=O)CCSc2ccc(Cl)cc2)ccc1Cl`, the cell number change amounted to 17%. Under setting [2], the AC50 was 0.82 µM [falling, single point].

As to `CCOc1ccc(CN(C)Cc2cc(=O)oc3cc(C)c(Cl)cc23)cc1`, the cell number change is -4.01%.

`COc1ccc2ccc(O)c(CN(C)CC(=O)Nc3ccccc3C(F)(F)F)c2c1`: the cell number change was -25.7%. The half-maximal activity concentration (AC50) under setting [2] was 16.4 µM [falling, partial curve].

Consider `CCOc1ccc(-c2cc(C(=O)NCCCn3ccnc3)c3cc(Br)ccc3n2)cc1`, for which the cell number change was -35.9%.

Take `COc1ccc(CC(=O)Nc2ccc(S(=O)(=O)Nc3ncccn3)cc2)cc1`: the cell number change was -19.6%. In addition, under setting [1], the AC50 was 6.51 µM [falling, single point]. Under setting [2], the AC50 is 14.6 µM [falling, partial curve].

As for `O=C(C[n+]1ccccc1)N/N=C/c1ccccc1[N+](=O)[O-]`, the cell number change was -107%. For the same molecule, the half-maximal activity concentration (AC50) under setting [1] was 29.1 µM [falling, partial curve, poor fit]. For the same molecule, the AC50 under setting [2] was 29.1 µM [falling, single point].

On to `COc1ccc(-c2csc3ncnc(N4CCN(S(=O)(=O)c5cccc(Br)c5)CC4)c23)cc1`, for which the cell number change was 41.1%. The AC50 under setting [1] was 1.64 µM [rising, partial curve, poor fit].

Consider `Cc1onc(-c2ccccc2Cl)c1C(=O)Nc1cccc(-c2cn3cccnc3n2)c1`, for which the cell number change came out at 34.3%. Also, the AC50 under setting [1] was 1.84 µM [rising, partial curve]. The AC50 under setting [2] is 0.651 µM [rising, partial curve, poor fit].

On to `O=S(=O)(NCc1ccc(F)cc1)c1ccc(-n2cnnn2)cc1`, for which the cell number change came out at 3.63%. Besides, the half-maximal activity concentration (AC50) under setting [2] is 4.11 µM [falling, single point].

With `O=C(N/N=C/c1ccc(Cl)cc1)c1sccc1OCc1ccc(F)cc1`, the AC50 runs as follows: under setting [1], 2.91 µM [rising, partial curve]; under setting [2], 2.31 µM [rising, full curve].

For `CCOC(=O)C1CCCCN1C(=O)c1ccc2nc(Cc3ccc(OC)cc3)oc2c1` (configuration not stated), the cell number change was -39.6%. Moreover, the AC50 under setting [1] is 6.51 µM [falling, partial curve]. Besides, the AC50 under setting [2] is 29.1 µM [falling, partial curve, poor fit].

For the molecule `O=C(CNC(=O)c1ccc(Br)o1)NNC(=O)c1ccccc1`, the cell number change stood at 2.09%. Also, the AC50 under setting [1] was 1.46 µM [falling, partial curve]. Besides, the AC50 under setting [2] is 1.46 µM [falling, partial curve].

`COc1ccc(NC(=O)N2CCC(C(=O)c3ccc4c(c3)OCCO4)CC2)cc1`: the AC50 under setting [2] was 16.4 µM [rising, partial curve].

Take `COC(OC)c1ccnc(-c2ccc(OC(=O)c3cccs3)cc2)n1`: the cell number change is -10.1%. For the same molecule, the AC50 under setting [1] was 0.731 µM [falling, single point].

Turning to `O=C(CS(=O)(=O)Cc1ccccc1)NCc1ccccc1Cl`, the cell number change worked out at 14.6%. Further, under setting [2], the concentration at half-maximal activity (AC50) is 23.1 µM [rising, single point].

Take `COc1ccccc1C(=O)Nc1ccccc1SC(=O)c1ccccc1OC`: the cell number change is -17.6%. Besides, the AC50 under setting [2] is 16.4 µM [falling, single point].
